Reference: paper PMC6338668
Results are given in words; binding and its absence hold for the method and conditions named. For some of these results: In cells and extracts the contact can be indirect. Some results given as binding are weak or reduced against the parent protein; the word gives no strength.

By UniProt entry, the sequences of proteins in these tests, tags left out. Where a name states a change or a piece, a line headed by the entry shows the natural chain unless it says otherwise. Chains listed by the source or under a name are the forms on record and can include a tag or linker. Residues count along the entry.
UniProt P08151: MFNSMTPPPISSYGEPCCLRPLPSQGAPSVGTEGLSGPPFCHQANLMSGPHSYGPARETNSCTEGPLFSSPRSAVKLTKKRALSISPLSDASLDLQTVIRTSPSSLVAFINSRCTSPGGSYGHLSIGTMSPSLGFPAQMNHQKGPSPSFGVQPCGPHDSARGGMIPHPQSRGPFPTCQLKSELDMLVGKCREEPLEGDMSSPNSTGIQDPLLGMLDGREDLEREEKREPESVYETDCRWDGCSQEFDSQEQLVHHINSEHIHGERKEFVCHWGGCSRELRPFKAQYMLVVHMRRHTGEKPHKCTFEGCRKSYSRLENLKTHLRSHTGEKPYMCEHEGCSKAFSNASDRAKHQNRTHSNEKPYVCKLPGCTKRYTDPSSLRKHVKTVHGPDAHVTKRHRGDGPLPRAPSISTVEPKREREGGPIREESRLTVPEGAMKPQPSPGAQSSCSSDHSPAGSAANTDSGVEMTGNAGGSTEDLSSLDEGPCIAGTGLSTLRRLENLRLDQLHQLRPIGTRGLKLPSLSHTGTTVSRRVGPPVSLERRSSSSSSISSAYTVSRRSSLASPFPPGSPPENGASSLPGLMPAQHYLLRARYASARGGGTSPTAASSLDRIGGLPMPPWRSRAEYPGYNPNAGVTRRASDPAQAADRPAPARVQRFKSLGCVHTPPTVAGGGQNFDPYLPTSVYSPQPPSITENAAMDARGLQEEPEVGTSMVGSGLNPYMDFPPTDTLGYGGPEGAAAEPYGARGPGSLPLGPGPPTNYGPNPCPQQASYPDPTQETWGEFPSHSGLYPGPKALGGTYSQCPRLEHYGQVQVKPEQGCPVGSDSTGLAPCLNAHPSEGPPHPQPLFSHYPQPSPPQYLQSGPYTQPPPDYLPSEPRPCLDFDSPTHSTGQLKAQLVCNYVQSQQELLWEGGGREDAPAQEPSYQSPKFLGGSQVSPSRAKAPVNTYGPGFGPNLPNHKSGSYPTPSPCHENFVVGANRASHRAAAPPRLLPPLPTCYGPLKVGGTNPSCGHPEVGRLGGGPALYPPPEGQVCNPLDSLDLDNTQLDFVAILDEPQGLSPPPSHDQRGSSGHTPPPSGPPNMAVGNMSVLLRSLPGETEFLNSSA
GST-GLI1 N-terminal region (1–411 aa): residues 1-411 of P08151
HA-GLI1 with arginine 1018 substituted (arginine to lysine) (P08151, form named): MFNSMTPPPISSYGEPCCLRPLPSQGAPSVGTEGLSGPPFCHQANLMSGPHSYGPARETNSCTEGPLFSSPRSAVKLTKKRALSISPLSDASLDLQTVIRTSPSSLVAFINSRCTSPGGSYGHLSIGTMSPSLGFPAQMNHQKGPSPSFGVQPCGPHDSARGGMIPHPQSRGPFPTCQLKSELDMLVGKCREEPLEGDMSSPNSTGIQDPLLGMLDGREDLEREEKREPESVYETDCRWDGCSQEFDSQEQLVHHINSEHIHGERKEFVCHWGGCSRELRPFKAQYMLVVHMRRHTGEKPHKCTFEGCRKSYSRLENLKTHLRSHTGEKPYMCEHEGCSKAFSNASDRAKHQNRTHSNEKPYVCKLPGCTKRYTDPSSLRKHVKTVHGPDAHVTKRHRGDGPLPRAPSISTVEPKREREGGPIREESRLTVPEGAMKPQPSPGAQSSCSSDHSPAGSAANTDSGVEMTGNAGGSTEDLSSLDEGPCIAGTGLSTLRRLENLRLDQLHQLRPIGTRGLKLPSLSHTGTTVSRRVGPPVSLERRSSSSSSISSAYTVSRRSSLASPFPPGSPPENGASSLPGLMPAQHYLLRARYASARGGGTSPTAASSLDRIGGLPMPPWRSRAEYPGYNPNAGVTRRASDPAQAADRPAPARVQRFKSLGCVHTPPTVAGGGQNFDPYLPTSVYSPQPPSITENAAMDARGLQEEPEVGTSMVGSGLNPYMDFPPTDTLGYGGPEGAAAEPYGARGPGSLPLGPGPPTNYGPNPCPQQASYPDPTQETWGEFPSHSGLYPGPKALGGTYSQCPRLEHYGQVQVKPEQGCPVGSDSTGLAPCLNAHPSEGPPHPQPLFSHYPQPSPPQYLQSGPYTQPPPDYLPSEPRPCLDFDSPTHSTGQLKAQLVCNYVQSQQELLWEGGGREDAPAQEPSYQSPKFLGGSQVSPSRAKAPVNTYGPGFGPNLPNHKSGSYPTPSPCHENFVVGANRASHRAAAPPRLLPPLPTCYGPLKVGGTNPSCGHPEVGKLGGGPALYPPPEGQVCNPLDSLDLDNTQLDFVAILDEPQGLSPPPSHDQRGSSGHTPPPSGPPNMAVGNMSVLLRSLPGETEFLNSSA
HA-GLI1 with arginine 990 substituted (arginine to lysine) (P08151, form named): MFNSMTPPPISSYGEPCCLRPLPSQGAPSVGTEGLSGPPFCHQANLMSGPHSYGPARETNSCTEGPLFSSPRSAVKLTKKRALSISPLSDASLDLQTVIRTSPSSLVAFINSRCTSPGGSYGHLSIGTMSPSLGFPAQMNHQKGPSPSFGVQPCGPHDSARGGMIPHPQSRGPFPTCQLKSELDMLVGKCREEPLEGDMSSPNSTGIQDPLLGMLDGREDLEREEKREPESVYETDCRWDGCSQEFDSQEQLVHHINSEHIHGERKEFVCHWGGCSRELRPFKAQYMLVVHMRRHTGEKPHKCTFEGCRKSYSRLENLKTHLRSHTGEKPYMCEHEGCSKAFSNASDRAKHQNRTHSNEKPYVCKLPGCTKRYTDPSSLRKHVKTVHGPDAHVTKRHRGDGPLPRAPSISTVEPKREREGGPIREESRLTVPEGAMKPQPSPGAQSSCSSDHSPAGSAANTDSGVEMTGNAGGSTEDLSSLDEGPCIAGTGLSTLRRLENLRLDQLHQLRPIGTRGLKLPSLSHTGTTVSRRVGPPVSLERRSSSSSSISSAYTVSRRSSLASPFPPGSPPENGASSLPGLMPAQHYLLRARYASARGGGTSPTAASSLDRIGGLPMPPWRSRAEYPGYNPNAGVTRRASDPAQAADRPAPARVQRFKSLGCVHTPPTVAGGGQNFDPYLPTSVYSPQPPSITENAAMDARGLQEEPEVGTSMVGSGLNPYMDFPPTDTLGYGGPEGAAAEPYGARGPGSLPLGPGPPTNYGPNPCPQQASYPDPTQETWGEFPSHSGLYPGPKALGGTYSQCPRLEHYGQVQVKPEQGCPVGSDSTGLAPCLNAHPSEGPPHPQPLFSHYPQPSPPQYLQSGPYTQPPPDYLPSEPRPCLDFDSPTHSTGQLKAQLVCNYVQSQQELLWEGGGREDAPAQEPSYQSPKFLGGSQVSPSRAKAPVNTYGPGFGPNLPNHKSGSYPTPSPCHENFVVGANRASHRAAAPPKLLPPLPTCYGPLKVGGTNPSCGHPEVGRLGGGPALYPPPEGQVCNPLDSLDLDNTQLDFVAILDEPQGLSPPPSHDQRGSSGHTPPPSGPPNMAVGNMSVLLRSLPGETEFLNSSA
HA-GLI1 with arginines 990 and 1018 both substituted (arginine to lysine) (P08151, form named): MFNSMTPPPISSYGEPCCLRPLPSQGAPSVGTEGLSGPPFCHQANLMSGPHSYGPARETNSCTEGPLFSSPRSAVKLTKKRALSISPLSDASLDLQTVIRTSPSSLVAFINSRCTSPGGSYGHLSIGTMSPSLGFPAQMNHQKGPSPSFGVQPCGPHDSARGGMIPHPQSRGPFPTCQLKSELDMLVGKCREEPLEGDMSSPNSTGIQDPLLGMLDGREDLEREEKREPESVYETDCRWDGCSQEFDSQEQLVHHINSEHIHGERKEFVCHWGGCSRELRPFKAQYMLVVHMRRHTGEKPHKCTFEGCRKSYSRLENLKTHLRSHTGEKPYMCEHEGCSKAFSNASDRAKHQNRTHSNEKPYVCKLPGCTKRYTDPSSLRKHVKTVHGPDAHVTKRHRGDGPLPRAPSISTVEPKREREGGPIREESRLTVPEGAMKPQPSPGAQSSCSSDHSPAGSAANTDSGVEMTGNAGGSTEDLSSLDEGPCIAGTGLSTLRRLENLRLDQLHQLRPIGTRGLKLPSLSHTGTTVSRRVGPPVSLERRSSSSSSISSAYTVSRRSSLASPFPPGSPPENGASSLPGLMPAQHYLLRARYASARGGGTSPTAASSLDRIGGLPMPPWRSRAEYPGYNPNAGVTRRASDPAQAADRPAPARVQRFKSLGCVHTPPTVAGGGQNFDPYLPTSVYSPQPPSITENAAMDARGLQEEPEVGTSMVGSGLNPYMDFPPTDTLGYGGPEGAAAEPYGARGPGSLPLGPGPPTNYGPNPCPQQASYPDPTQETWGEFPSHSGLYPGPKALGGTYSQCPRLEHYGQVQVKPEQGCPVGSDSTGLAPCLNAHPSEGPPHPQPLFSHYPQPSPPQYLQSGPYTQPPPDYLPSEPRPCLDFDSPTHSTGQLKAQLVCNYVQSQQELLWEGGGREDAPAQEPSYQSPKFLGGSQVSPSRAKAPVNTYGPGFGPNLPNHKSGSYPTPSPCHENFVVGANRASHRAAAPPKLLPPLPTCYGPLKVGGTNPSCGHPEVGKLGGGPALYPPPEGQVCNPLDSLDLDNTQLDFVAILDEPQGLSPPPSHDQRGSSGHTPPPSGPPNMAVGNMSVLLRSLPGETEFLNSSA
UniProt P47806: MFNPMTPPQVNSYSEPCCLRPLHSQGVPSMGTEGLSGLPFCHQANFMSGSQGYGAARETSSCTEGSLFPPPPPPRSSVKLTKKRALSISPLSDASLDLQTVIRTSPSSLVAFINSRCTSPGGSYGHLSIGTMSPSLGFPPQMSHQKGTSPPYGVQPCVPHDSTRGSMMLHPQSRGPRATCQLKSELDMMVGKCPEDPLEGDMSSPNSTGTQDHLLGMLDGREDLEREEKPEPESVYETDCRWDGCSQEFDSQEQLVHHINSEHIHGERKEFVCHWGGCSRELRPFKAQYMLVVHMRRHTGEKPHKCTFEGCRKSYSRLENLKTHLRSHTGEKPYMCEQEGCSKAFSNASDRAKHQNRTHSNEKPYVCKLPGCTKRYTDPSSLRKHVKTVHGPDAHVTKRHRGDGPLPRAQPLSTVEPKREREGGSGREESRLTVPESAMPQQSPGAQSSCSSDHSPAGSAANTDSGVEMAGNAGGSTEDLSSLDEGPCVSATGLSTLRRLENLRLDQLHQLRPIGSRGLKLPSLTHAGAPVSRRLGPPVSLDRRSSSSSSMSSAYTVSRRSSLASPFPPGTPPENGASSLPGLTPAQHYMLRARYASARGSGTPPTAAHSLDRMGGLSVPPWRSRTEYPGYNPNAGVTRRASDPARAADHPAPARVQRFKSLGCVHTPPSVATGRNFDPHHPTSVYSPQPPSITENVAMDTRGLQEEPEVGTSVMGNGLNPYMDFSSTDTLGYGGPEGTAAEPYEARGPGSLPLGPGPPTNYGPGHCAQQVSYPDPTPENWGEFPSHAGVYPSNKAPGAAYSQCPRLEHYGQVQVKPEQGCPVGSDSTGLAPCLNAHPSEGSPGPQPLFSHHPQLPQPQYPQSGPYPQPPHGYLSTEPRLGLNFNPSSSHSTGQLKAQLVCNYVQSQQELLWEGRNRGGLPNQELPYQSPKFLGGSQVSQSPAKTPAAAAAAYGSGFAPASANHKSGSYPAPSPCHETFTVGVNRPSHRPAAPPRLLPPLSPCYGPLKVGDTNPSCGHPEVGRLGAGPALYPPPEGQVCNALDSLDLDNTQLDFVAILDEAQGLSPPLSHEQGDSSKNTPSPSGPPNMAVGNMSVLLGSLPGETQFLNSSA
UniProt Q8C863: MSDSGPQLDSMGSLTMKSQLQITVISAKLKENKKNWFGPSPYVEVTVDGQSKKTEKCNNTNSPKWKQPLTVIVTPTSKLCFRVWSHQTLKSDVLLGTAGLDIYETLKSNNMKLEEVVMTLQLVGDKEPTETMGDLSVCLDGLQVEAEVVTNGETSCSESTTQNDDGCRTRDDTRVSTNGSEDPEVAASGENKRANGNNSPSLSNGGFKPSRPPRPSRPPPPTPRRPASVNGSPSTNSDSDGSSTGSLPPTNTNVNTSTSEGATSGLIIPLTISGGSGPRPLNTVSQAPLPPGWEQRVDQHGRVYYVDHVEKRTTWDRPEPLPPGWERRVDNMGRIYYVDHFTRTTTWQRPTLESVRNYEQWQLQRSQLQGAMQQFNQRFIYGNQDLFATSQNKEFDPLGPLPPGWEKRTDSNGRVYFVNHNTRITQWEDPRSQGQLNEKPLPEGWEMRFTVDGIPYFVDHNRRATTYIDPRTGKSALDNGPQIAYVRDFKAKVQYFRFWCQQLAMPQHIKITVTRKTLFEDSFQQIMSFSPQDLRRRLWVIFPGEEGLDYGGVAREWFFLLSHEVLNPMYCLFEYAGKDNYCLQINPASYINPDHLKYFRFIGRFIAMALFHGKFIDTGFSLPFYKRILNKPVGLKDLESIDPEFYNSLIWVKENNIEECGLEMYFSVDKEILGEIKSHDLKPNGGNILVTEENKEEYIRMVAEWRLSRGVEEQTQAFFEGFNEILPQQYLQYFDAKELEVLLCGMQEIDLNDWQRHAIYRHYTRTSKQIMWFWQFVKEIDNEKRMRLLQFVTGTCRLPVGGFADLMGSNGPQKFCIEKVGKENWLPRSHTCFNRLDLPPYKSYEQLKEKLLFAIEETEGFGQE

Key:
[1] = target: MEP50, endogenous in C3H10T1/2 cells (mouse (endogenous in C3H10T1/2)) (UniProt Q99J09); assay: co-IP; endogenous proteins of C3H10T1/2 cells treated with SAG for 36 h; immunoprecipitation with anti-PRMT5 (D5P2T), anti-MEP50 (EPR10708 [B]) or anti-GLI1 (V812), immunoblot; also in stable MEP50 knockdown cells (siMEP50-m2), SAG 48 h and 50 μM MG132 4 h
[2] = target: GST-GLI1 N-terminal region (1–411 aa) (UniProt P08151); assay: pull-down; GST-GLI1 deletion mutants coupled to glutathione sepharose incubated with Myc-MEP50 immunoprecipitated (purified) from HEK293T cells; immunoblot with anti-Myc; both purified
[3] = target: FLAG-tagged GLI1 expressed in HEK293T cells (UniProt P08151); assay: co-IP; HEK293T cells transfected with Myc-MEP50 or its deletion mutants and FLAG-GLI1 for 24 h; immunoprecipitation with anti-FLAG (legend; the text says anti-Myc), immunoblot with anti-FLAG and anti-Myc
[4] = target: GLI1 in stably PRMT5-knockdown or MEP50-knockdown C3H10T1/2 cells (Fig. 5a) (UniProt P08151); assay: co-IP; stably PRMT5-knockdown or MEP50-knockdown C3H10T1/2 cells (siPRMT5-m2, siMEP50-m2) and control; 50 μM MG132 for 4 h before harvesting; GLI1 with endogenous ITCH or NUMB
[5] = target: HA-GLI1 with arginine 1018 substituted (arginine to lysine) (UniProt P08151); assay: co-IP; C3H10T1/2 cells transfected with HA-GLI1 mutants, 48 h, then 50 μM MG132 for 4 h; immunoprecipitation with anti-HA, immunoblot for endogenous ITCH and NUMB
[6] = target: HA-GLI1 with arginine 990 substituted (arginine to lysine) (UniProt P08151); assay: as above
[7] = target: HA-GLI1 with arginines 990 and 1018 both substituted (arginine to lysine) (UniProt P08151); assay: as above

“GLI1, endogenous in C3H10T1/2 cells (from UniProt P47806 1-1111)” was tested, and the binding [1] was “binds”.
For “Myc-tagged MEP50 (from UniProt Q9BQA1 1-342)”, the binding [2] was “binds” and the binding [3] was “binds”.
With “ITCH/NUMB ubiquitin ligase complex, endogenous in C3H10T1/2 cells (from UniProt Q8C863 1-864; Q9QZS3 1-653)” the binding [4] was “binds”, the binding [5] was “binds” and the binding [6] was “binds”. For the same substance, the binding [7] was “binds”.
